Assay results taken from PubChem BioAssay AID590 (National Center for Advancing Translational Sciences (NCATS), 2007).
The whole screen tested about 59,000 compounds, of which about 6,500 (11%) were called active. The inconclusive results got no clear call from the source; some entries with a clear call stand among them for comparison. No stated cut-off is given here; in the data, active means max dye-equivalent concentration above about 10 nM; inconclusive means mostly about 1.1 nM to 9.6 nM; inactive means weaker than that.

Assay: qHTS Assay for Spectroscopic Profiling in A350 Spectral Region
Conditions: Compound autofluorescence, 340/450 nm, Alexa 350 dye-equivalents; stronger effect = higher value

Compound	max dye-equivalent concentration
Cc1cc(C)n2nc(C(=O)NCc3ccco3)nc2n1	inactive
CC(NC(=O)Nc1ccc(O)cc1)(C(F)(F)F)C(F)(F)F	inconclusive: 8.2 nM
COc1cc(C2NC(=O)NC(C)=C2C(=O)OC(C)(C)C)ccc1OCC(N)=O (stereo unspecified)	inactive
COc1ccc(N2CCN(C(=O)CSc3nnc(C)c(=O)[nH]3)CC2)cc1	active: 21 nM
CCOC(=O)c1c(NC(=O)CSc2n[nH]c(N)n2)sc(CC)c1C	inconclusive: 1.5 nM
CC(=O)OCc1cc2cccc(C)c2[nH]c1=O	inconclusive: 5.7 nM
c1ccc(CCc2ccccc2-c2nc(-c3cccnc3)no2)cc1	inactive
CC(C)C(=O)Nc1cccc(C(=O)Nc2nccs2)c1	inactive
CC(C)CC(=O)Nc1nnn(C)n1	inconclusive: 1.9 nM
O=C(c1cccs1)c1cn(CC(=O)N2CCc3ccccc3C2)c2ccccc12	inconclusive: 9.7 nM
CN(C)c1ncc2nc(-c3cccc(C#N)c3)c(=O)n(C[C@H]3CCCO3)c2n1	inconclusive: 9.2 nM
Cc1noc(C)c1C(=O)Nc1sc2c(c1C(N)=O)CCC2	active: 160 nM
CC(C)Cn1cnc2c(N)nc3ccccc3c21	inconclusive: 2.9 nM
Cn1nnnc1SCC(=O)Nc1ccc(Oc2ccc(Cl)cc2)cc1	inconclusive: 5.4 nM
CCC(C)(C)NC(=O)c1ccc2c(c1)N(CC(=O)OC)C(=O)C(C)(C)O2	inconclusive: 1.2 nM
CCOc1cccc(-c2nnc3sc(-c4cccs4)nn23)c1	inactive
COC(=O)c1ccc(Sc2ccc(C)cc2)c(N)c1	inconclusive: 4.9 nM
CCOC(=O)c1c(C)oc2ccc(O)c(CN3CCCCC3)c12	inconclusive: 2.7 nM
CS(=O)(=O)N1CCN(C(=O)C(Sc2ccccc2)c2ccccc2)CC1 (stereo unspecified)	inconclusive: 10 nM
CC1(C)Cc2c(sc3nc(SCC(=O)NCc4ccco4)n(-c4ccccc4)c(=O)c23)CS1	inconclusive: 8.4 nM
CCN1CCN(Cc2cc(=O)oc3ccc(Cl)cc23)CC1	inconclusive: 7.7 nM
Cc1ccnc(NC(=O)Nc2cccc(F)c2)c1	inactive
O=C(Nc1ccccc1)N(CCN1CCOCC1)Cc1ccccc1F	inconclusive: 1.4 nM
N#CC1=C(N)C(C#N)(C#N)[C@H](c2c(F)cccc2F)[C@H]2CC3(CC=C12)OCCO3	active: 18 nM
COc1cccc(-c2nnc(SCc3nc4ccccc4[nH]3)n2N)c1	inconclusive: 3.3 nM
CCOC(=O)C1=C(c2ccccc2)N2CCN=C2S1	inactive

A few values from the entries so far.
Under max dye-equivalent concentration, CS(=O)(=O)N1CCN(C(=O)C(Sc2ccccc2)c2ccccc2)CC1 (stereo unspecified) shows inconclusive: 10 nM
Under max dye-equivalent concentration, CCOC(=O)C1=C(c2ccccc2)N2CCN=C2S1 shows inactive
